PubChem BioAssay AID743121 – NCATS – 2013
The deposit covers about 26,000 reagents; shown is an unselected part. In the full data, 167 (0.63%) were called active. 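Calls are per gene from RSA p-values that are not deposited; an individual active-marked siRNA can sensitise only weakly.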 The numbers tell different reagents against one gene apart.

- Screen: 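Genes whose silencing strengthens cell killing by camptothecin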 (primary screen)
- Cells: MDA-MB-231 cells, a human breast cancer line
- Reagent: single siRNA against human genes, 20 nM siRNA (0.8 pmol per well)
- Duration: 120 h (drug added 48 h after transfection, read 72 h later)
- Challenge: camptothecin 20 nM (about EC30) for 72 h; vehicle 0.1% DMSO in parallel plates
- Measured: 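Cell viability by ATP luminescence (CellTiter-Glo) as % of non-targeting siRNA wells, and the log2 ratio of viability without drug over viability with camptothecin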
- Reading the numbers: log2 vehicle/camptothecin viability: higher = stronger sensitisation to camptothecin; viability with camptothecin and viability without drug: higher = more viable cells
- Hit rule: 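Active genes have an RSA gene-level p-value below 0.001, computed from the ratios of their separate siRNAs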

gene	reagent	log2 vehicle/camptothecin viability	viability with camptothecin (% of control)	viability without drug (% of control)	activity call
EGFEM1P	1	0.243	49	58	inactive
EGFEM1P	2	-0.142	85.6	77.5	inactive
EGFEM1P	3	-0.0354	48.2	47	inactive
EGFEM1P	4	-0.138	48.9	44.4	inactive
PECAM1	1	0.185	43.4	49.3	inactive
PECAM1	2	0.016	102	103	inactive
PECAM1	3	-0.0395	110	107	inactive
PECAM1	4	0.376	64.4	83.6	inactive
FGF5	1	-0.537	39.4	27.1	inactive
FGF5	2	-0.314	70.1	56.4	inactive
FGF5	3	-0.097	105	98.3	inactive
FGF5	4	-0.13	115	105	inactive

Just “log2 vehicle/camptothecin viability”, for 3 of the entries above:
EGFEM1P #1: 0.243
EGFEM1P #2: -0.142
EGFEM1P #3: -0.0354

Additional entries:
gene	reagent	log2 vehicle/camptothecin viability	viability with camptothecin (% of control)	viability without drug (% of control)	activity call
PASK	1	0.144	97.2	107	inactive
PASK	2	-0.417	87.8	65.8	inactive
PASK	3	-0.153	117	106	inactive
PASK	4	0.214	60.9	70.6	inactive
IL15	1	-0.163	96.2	85.9	inactive
IL15	2	-0.223	106	91.1	inactive
IL15	3	0.602	50	75.9	inactive
IL15	4	-0.562	74.2	50.3	inactive
PBK	1	0.115	80.3	87	inactive
PBK	2	-0.551	50.9	34.7	inactive
PBK	3	-0.0617	105	100	inactive
PBK	4	-0.0651	115	110	inactive
SBF1	1	-0.197	138	120	inactive
SBF1	2	0.453	43.6	59.7	inactive
SBF1	3	-0.603	100	65.9	inactive
SBF1	4	0.00484	51.9	52.1	inactive
